Measurements as given in patent publication US20250304707A1.
Substitutions are numbered along the chain they refer to. These are yes or no findings as the source states them, for the method shown. Some results given as binding are weak or reduced against the parent protein; the word gives no strength.

Protein sequences, listed by entry. Tags and fused reporters are not part of them. Lines headed by an entry give the natural chain unless they say otherwise; changes in a name come on top. Chains listed by the source or under a name are the forms on record and can include a tag or linker.
rhesus BCMA (F7FFA0, form named): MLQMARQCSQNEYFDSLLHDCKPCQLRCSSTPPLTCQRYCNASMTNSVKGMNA

B1: Antibody 01-001 (antibody, human IgG1, kappa, L234A L235A, V domains shown)
VH: EVQLVQSGGGLVQPGGSLRLSCAVSGFTLSSSAMSWVRQAPGKGFEWVSGYNGGSDRAGFADSVEGRFTISRDNAKNTLYLQMNSLKPEDTAVYYCARYIANSGTYYWDYWGQGTLVTVSS
VL: QPVLTQPPSASGTPGQRVTISCSGSSSNIGSNTVNWYQQLPGTAPKLLIYNDSQRPSGVPDQFSGSKSGTSASLAISGLQSDNEADYYCAAWDGSLNVWMFGGGTKVTVLR
B2: Antibody 01-027 (antibody, human IgG1, kappa, L234A L235A, V domains shown)
VH: B1 VH with P14S, L20V, V24A, L29F, S32G, A33L, F60Y, A61T, E65K, L116T
VL: QAVLTQPPSASGTPGQRVSISCSGGISNIGSNIVNWYQHLPGTAPKLLIYSGNQRPSGVPDRFSGSKSGTSASLAISGLQSEDEADYYCSSWDSDLRNWVFGGGTKLTVLR
B3: Antibody 01-006 (antibody, human IgG1, kappa, L234A L235A, V domains shown)
VH: B1 VH with A23S, V24A, L29F, S32G, A33L, F60Y, A61T, E65K
VL: QAVLTQPPSVSGTPGQRVTISCSGSTSNIGHRTVNWYQQFPGAAPKLLIYRNNQRPSGVPARFSGSKSGTSASLAISGLQSEDEADYHCAAWDDSLTAWVFGGGTQLTVLR
B4: Antibody 01-037 (antibody, human IgG1, kappa, L234A L235A, V domains shown)
VH: B1 VH with P14S, L20V, V24A, L29F, S32G, A33L, F60Y, A61T, E65K, L116T
VL: SYVLTQPPSASGTPGQRVTISCSGTRSNIGTNTVNWYQQLPGTAPKLLIYRNNQRPSGVPDRFSGSKSGTSASLAISGLQSEDEADYYCAVWDDRVSAWLFGGGTKLTVLR
B5: Antibody 01-016 (antibody, human IgG1, kappa, L234A L235A, V domains shown)
VH: B1 VH with L29F, A33V
VL: QPVLTQPPSVSEAPRQRVTISCSGSSSNIGNNAVNWYQQLPGKAPKLLIFKNNQRPSGVPDRFSGSKSGTSASLVISGLQSEDEADYYCAAWDGSLNAWMFGGGTKLTVLR
B6: Antibody 01-025 (antibody, human IgG1, kappa, L234A L235A, V domains shown)
VH: B1 VH with P14S, L20V, V24A, L29F, S32G, A33L, F60Y, A61T, E65K, L116T
VL: B5 VL with F50Y, K51S, N52T, V75A, G94D, S95R, L96V, N97S, M100L
B7: Antibody 01-026 (antibody, human IgG1, kappa, L234A L235A, V domains shown)
VH: B1 VH with P14S, L20V, V24A, L29F, S32G, A33L, F60Y, A61T, E65K, L116T
VL: QSVLTQPPSVSGAPGQRVTISCTGSSSNIGAGYDVHWYQQLPGTAPKLVIYGNTNRPSGVPDRFSGSKSGTSASLAISGLQSEDEADYYCAAWDDSLNGWVFGGGTKLTVLR
B8: Antibody 01-030 (antibody, human IgG1, kappa, L234A L235A, V domains shown)
VH: B1 VH with L20V, V24A, T28S, L29F, S32G, A33L
VL: QSALTQPPSASGTPGQRVTISCSGSISNIGSNTVNWYQHLPGTAPKLLIYNHNQRPSGVPDRFSGSTSGTSASLAISGLQSEDEADYFCATWDDSLSAWLFGGGTKLTVLR
B9: Antibody 01-024 (antibody, human IgG1, kappa, L234A L235A, V domains shown)
VH: EVQLVQSGGGLVQSGGSLRVSCAASGFTFSSGLMSWVRQAPGKGFEWVSCYNGGSDRAGYTDSVKGRFTISRDNAKNTLYLQMNSLKPEDTAVYYCARYIANSGTYYWDYWGQGTTVTVSS
VL: B2 VL
B10: 01-006 (Fab) (Fab, V domains shown)
VH: B9 VH with S14P, V20L, A23S, C50G, T116L
VL: QAVLTQPPSVSGTPGQRVTISCSGSTSNIGHRTVNWYQQFPGAAPKLLIYRNNQRPSGVPARFSGSKSGTSASLAISGLQSEDEADYHCAAWDDSLTAWVFGGGTQLTVL
B11: 01-016 (Fab) (Fab, V domains shown)
VH: B1 VH with L29F, A33V
VL: QPVLTQPPSVSEAPRQRVTISCSGSSSNIGNNAVNWYQQLPGKAPKLLIFKNNQRPSGVPDRFSGSKSGTSASLVISGLQSEDEADYYCAAWDGSLNAWMFGGGTKLTVL
B12: 01-001 (Fab) (Fab, V domains shown)
VH: B1 VH
VL: QPVLTQPPSASGTPGQRVTISCSGSSSNIGSNTVNWYQQLPGTAPKLLIYNDSQRPSGVPDQFSGSKSGTSASLAISGLQSDNEADYYCAAWDGSLNVWMFGGGTKVTVL

Target: rhesus BCMA (rhesus) (UniProt F7FFA0)
Assay: BLI (Octet RED384), rhesus BCMA on AR2G sensors

binding | Binder
binds | B1
binds | B2
binds | B3
binds | B4
binds | B5
binds | B6
binds | B7
binds | B8
binds | B9

Target: rhesus BCMA (rhesus) (UniProt F7FFA0)
Assay: ELISA, immobilized antigen, E. coli supernatant

binding | Binder
binds | B10
binds | B11
binds | B12
